No constants are given. Whether binding was seen depends on the method and setting.

This test addresses T1, granule-bound starch synthase I (StGBSS), in pGBKT7 (potato (Solanum tuberosum L.)) (UniProt Q00775).
T1 sequence: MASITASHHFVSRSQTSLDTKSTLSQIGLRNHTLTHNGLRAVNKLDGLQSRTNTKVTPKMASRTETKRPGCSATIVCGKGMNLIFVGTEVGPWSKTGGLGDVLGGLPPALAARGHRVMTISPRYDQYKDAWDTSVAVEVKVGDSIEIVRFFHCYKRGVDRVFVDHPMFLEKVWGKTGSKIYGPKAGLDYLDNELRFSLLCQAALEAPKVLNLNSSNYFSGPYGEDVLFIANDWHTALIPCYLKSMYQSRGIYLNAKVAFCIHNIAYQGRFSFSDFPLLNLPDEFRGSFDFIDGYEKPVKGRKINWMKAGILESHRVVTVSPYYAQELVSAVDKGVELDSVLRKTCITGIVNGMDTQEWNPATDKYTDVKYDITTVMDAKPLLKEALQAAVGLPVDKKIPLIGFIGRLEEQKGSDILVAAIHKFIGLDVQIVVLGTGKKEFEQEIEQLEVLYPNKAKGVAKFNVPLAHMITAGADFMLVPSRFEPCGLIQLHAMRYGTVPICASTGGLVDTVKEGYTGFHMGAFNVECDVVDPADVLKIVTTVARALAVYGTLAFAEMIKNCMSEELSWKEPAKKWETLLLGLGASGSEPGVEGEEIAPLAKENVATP
Nature of the test: two-hybrid; Gal4-based yeast two-hybrid, pGADT7 and pGBKT7 vectors in yeast strain AH109; colour on SD/–Leu–Trp/X-α-Gal and survival on SD/–Leu–Trp–His.
In the case of “StAmy23, in pGADT7 (potato (Solanum tuberosum L.))”, the binding result is “no binding”.

Take “StBAM9, in pGADT7 (potato (Solanum tuberosum L.))”: the binding result is “no binding”. As to “StBAM1, in pGADT7 (potato (Solanum tuberosum L.))”, the binding entry is listed as “no binding”.

These data come from article PMC5447890.
